Reference: the supplement of paper PMC10849652
Some of the results follow.

Protein sequences, listed by entry. Tags and fused reporters are not part of them. Lines headed by an entry give the natural chain unless they say otherwise; changes in a name come on top.
UniProt P17483: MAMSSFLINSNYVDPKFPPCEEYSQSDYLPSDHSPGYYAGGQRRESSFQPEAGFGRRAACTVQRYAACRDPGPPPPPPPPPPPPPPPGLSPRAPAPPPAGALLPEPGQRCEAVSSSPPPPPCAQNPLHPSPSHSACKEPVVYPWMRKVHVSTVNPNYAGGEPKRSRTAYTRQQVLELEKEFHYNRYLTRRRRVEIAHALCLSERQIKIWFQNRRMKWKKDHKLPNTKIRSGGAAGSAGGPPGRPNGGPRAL
UniProt Q00613: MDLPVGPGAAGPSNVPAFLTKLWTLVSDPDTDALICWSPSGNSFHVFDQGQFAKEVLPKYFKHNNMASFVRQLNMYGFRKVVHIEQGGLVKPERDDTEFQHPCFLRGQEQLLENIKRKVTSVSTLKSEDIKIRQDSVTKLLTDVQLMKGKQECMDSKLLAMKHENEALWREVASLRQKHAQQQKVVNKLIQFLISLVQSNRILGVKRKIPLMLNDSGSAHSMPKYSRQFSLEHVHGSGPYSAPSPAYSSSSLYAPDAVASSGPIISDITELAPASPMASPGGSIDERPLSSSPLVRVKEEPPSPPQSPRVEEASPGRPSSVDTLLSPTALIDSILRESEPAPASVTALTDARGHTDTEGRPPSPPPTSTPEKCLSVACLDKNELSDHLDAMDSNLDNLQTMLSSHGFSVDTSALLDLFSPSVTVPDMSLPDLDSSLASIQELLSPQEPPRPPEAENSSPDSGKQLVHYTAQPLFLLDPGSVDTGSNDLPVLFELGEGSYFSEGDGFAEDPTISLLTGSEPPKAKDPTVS
UniProt P00738: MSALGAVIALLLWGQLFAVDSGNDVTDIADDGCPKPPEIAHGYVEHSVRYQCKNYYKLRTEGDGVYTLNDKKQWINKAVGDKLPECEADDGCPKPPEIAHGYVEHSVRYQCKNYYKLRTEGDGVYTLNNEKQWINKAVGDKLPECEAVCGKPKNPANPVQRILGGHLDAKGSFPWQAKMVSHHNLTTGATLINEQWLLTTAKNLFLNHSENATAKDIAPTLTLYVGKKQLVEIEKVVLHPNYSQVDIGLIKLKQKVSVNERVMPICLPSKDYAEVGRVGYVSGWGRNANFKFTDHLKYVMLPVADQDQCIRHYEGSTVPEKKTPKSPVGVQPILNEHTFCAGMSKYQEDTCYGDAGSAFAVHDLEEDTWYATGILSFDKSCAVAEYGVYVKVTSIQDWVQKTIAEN
UniProt Q92902: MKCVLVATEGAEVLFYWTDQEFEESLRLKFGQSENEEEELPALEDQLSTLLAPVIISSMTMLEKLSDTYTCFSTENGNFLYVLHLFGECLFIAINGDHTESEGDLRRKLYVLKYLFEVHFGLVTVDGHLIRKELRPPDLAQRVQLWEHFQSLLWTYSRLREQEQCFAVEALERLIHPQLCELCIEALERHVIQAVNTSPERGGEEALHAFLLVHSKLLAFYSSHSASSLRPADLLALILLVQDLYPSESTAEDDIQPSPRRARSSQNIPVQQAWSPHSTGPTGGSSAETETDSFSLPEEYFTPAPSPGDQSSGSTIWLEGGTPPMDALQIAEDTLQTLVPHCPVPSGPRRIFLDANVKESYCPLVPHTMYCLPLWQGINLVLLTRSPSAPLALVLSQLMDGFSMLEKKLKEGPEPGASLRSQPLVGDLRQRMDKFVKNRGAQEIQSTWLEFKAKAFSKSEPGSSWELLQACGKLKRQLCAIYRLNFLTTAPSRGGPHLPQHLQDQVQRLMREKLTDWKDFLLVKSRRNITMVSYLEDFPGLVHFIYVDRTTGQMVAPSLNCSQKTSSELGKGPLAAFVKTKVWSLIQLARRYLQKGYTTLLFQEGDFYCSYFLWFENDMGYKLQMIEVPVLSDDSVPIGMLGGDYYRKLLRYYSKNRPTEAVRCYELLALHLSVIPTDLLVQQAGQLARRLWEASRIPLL
UniProt Q9NSC5: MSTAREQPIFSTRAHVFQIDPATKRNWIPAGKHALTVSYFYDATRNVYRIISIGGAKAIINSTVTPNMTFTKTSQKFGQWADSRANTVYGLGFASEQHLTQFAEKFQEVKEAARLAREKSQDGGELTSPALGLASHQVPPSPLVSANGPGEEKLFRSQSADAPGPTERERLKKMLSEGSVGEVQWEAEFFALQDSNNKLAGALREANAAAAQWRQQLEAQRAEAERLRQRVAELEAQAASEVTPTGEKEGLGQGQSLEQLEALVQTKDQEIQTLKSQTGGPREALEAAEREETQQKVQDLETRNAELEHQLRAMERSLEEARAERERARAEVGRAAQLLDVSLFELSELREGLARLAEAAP
UniProt Q96ED9: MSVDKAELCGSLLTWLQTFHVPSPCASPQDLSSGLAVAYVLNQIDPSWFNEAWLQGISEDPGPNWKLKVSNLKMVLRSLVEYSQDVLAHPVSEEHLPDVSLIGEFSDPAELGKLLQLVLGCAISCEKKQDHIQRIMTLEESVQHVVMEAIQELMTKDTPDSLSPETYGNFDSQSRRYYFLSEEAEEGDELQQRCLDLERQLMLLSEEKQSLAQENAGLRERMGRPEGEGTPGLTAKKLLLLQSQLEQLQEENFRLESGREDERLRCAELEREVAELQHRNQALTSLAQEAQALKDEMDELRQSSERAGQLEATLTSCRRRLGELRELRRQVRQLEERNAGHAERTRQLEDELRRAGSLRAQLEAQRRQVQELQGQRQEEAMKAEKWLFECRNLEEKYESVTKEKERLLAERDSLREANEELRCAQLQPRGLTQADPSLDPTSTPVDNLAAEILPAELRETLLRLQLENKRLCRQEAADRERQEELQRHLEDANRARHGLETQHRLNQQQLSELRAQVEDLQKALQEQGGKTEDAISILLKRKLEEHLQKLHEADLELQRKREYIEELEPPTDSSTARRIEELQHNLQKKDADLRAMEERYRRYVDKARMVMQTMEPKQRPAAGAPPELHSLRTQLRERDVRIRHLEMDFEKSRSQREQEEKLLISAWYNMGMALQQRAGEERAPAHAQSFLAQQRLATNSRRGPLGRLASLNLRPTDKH
UniProt Q96FZ2: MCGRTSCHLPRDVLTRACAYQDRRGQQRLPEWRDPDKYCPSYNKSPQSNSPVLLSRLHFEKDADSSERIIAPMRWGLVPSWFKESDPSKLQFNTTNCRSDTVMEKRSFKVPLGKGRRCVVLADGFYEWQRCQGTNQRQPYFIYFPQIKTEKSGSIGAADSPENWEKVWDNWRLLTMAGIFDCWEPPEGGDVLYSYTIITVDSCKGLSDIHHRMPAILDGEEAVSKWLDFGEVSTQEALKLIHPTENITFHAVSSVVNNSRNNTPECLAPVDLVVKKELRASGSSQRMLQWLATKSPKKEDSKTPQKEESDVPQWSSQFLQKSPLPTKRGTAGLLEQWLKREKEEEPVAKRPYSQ
UniProt P41134: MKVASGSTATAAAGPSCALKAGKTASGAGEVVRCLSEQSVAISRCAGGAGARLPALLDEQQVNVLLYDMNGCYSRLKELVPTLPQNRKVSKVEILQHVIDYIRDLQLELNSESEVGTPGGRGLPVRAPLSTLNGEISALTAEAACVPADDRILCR
UniProt Q00839, whole entry, looked up: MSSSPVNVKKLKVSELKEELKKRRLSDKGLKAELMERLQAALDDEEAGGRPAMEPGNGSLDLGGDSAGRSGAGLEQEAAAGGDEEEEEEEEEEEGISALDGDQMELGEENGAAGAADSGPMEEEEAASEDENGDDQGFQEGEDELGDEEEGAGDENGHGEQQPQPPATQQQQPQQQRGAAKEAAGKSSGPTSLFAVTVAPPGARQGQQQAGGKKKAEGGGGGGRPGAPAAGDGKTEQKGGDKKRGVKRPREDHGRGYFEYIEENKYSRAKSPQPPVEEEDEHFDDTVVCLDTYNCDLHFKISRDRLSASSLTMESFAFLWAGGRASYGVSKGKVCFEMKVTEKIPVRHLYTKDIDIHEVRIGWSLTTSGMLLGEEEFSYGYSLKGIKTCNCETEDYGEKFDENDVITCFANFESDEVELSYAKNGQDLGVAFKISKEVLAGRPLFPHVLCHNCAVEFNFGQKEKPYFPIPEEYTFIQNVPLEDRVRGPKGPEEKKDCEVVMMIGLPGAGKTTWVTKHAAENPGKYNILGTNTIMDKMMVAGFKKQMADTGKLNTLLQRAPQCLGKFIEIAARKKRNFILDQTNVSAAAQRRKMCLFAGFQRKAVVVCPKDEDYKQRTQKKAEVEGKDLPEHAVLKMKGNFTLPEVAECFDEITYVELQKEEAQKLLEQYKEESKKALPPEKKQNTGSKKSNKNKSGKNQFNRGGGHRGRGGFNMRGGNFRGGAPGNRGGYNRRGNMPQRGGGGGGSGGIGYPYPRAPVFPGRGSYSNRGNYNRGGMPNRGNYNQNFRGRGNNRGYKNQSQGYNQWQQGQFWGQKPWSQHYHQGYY
UniProt O75506: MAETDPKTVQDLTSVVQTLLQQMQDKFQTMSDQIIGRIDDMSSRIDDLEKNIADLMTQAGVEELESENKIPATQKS

Key:
Assay in all cases: log2 fold change, soluble protein after heating vs DMSO (PISA); higher = thermal stabilisation; K562 cells, 10 uM, 30 min; active = over 0.2 and 3.5 SD of the protein, either way, in both replicates (recomputed)
gefitinib = compound: COc1cc2ncnc(Nc3ccc(F)c(Cl)c3)c2cc1OCCCN1CCOCC1 [gefitinib]
Summary of the method: (§1)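 Aliquots of K562 cells (2×10^6 cells/mL) treated with 10 μM compound for 30 min were heated for 3 min over 48°C-58°C. After pooling and extraction in PBS with 0.5% NP-40 at 4°C, soluble protein from a 21,000xg, 90 min spin was quantified by TMTpro 16plex LC-MS/MS with channel sums equalised. Thermal stability is expressed against control samples, from duplicates, as a log2 fold change.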

filanesib = compound: CON(C)C(=O)N1N=C(c2cc(F)ccc2F)S[C@@]1(CCCN)c1ccccc1 [filanesib]
Summary of the method: as §1

zotarolimus = compound: CO[C@H]1C[C@@H]2CC[C@@H](C)[C@@](O)(O2)C(=O)C(=O)N2CCCC[C@H]2C(=O)O[C@H]([C@H](C)C[C@@H]2CC[C@H](n3cnnn3)[C@H](OC)C2)CC(=O)[C@H](C)/C=C(\C)[C@@H](O)[C@@H](OC)C(=O)[C@H](C)C[C@H](C)/C=C/C=C/C=C/1C [zotarolimus]
Summary of the method: as §1

idasanutlin = compound: COc1cc(C(=O)O)ccc1NC(=O)[C@@H]1N[C@@H](CC(C)(C)C)[C@](C#N)(c2ccc(Cl)cc2F)[C@H]1c1cccc(Cl)c1F [idasanutlin]
Summary of the method: as §1

alisertib = compound: COc1cc(Nc2ncc3c(n2)-c2ccc(Cl)cc2C(c2c(F)cccc2OC)=NC3)ccc1C(=O)O [alisertib]
Summary of the method: as §1

[1] = compound: COc1cc2nc(-c3cc(F)ccc3O)nc(N[C@@H]3CNC[C@H]3C(C)(C)O)c2cc1OC
Summary of the method: as §1

[2] = compound: COc1cccc2cc(-c3nc([C@H]4CC[C@H](C(=O)O)CC4)n4ncnc(N)c34)[nH]c12
Summary of the method: as §1

lapatinib = compound: CS(=O)(=O)CCNCc1ccc(-c2ccc3ncnc(Nc4ccc(OCc5cccc(F)c5)c(Cl)c4)c3c2)o1 [lapatinib]
Summary of the method: as §1

pictilisib = compound: CS(=O)(=O)N1CCN(Cc2cc3nc(-c4cccc5[nH]ncc45)nc(N4CCOCC4)c3s2)CC1 [pictilisib]
Summary of the method: as §1

[3] = compound: COC1=CC=C(C=C1)CN2C=CC3=C2C=C(C=C3)C(=O)NO
Summary of the method: as §1

Measured: log2 fold change

HOXB4 (UniProt P17483)
inactive: gefitinib 0.183

HSF1 (UniProt Q00613)
inactive: filanesib -0.109 | zotarolimus 0.074 | idasanutlin -0.131 | alisertib -0.146 | [1] -0.076 | gefitinib -0.026 | [2] 0.18 | lapatinib 0.086 | pictilisib 0.063

HP (UniProt P00738)
inactive: filanesib 0.085

HNRNPK isoform 3 (UniProt P61978)
inactive: [3] -0.025 | filanesib 0.077 | alisertib -0.063 | gefitinib -0.066 | [2] 0.005 | pictilisib 0.057

Reprinted at random: two entries already listed
HOXB4 (UniProt P17483)
inactive: gefitinib 0.183

HNRNPK isoform 3 (UniProt P61978)
inactive: [3] -0.025 | filanesib 0.077 | alisertib -0.063 | gefitinib -0.066 | [2] 0.005 | pictilisib 0.057

Next part

HPS1 (UniProt Q92902)
inactive: filanesib 0.081 | zotarolimus -0.09 | idasanutlin 0.061 | alisertib 0 | [1] 0.068 | gefitinib -0.003 | [2] 0.048 | lapatinib -0.213

HOMER3 (UniProt Q9NSC5)
inactive: filanesib 0.046 | zotarolimus -0.01 | alisertib -0.034 | [2] 0.079

HOOK2 (UniProt Q96ED9)
inactive: [3] -0.041 | zotarolimus -0.012 | [1] 0.299 | lapatinib -0.031

HTD2 (UniProt P86397)
inactive: filanesib 0.062 | zotarolimus 0.086 | idasanutlin -0.012 | alisertib -0.003 | [1] 0.036 | [2] 0.026 | lapatinib 0.018 | pictilisib -0.024

HMCES (UniProt Q96FZ2)
inactive: filanesib 0.046 | idasanutlin 0.033 | alisertib 0.231 | [1] 0.082 | gefitinib 0.081 | [2] 0.209 | lapatinib -0.082

ID1 (UniProt P41134)
inactive: alisertib 0.634 | gefitinib -0.005 | [2] 0.069

HNRNPU isoform 2 (UniProt Q00839)
inactive: [1] -0.017 | lapatinib -0.087

HSBP1 (UniProt O75506)
inactive: gefitinib 0.209
